The list shows a part of the results.
Each target was assayed with COc1ccc(Cn2ccc3cc(C)c(C(=O)NO)cc32)cc1 (assay: dose-dependent thermal stabilisation call (2D-TPP, DLPTP, 10% FDR) (binary (1 = stabilised)); higher = stabilised by the compound). Settings: system: HL-60 intact cells; concentration range 0.04-10 µM.
Experimental: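 2D thermal proteome profiling in intact HL-60 cells treated with BRD-3811 (0, 0.04, 0.29, 2, 10 uM) for 90 min at 37 C, then heated 3 min at one of 12 temperatures (42-63.9 C). Soluble protein was quantified by TMT10 MS. The value is the DLPTP call of the paper: dose-dependent thermal stabilisation over all temperatures at 10% FDR (F-test of a dose-response against a flat model); one experiment, one call per tested protein.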

Protein sequences, listed by entry. Tags and fused reporters are not part of them. Lines headed by an entry give the natural chain unless they say otherwise; changes in a name come on top.
UniProt O75369, whole entry: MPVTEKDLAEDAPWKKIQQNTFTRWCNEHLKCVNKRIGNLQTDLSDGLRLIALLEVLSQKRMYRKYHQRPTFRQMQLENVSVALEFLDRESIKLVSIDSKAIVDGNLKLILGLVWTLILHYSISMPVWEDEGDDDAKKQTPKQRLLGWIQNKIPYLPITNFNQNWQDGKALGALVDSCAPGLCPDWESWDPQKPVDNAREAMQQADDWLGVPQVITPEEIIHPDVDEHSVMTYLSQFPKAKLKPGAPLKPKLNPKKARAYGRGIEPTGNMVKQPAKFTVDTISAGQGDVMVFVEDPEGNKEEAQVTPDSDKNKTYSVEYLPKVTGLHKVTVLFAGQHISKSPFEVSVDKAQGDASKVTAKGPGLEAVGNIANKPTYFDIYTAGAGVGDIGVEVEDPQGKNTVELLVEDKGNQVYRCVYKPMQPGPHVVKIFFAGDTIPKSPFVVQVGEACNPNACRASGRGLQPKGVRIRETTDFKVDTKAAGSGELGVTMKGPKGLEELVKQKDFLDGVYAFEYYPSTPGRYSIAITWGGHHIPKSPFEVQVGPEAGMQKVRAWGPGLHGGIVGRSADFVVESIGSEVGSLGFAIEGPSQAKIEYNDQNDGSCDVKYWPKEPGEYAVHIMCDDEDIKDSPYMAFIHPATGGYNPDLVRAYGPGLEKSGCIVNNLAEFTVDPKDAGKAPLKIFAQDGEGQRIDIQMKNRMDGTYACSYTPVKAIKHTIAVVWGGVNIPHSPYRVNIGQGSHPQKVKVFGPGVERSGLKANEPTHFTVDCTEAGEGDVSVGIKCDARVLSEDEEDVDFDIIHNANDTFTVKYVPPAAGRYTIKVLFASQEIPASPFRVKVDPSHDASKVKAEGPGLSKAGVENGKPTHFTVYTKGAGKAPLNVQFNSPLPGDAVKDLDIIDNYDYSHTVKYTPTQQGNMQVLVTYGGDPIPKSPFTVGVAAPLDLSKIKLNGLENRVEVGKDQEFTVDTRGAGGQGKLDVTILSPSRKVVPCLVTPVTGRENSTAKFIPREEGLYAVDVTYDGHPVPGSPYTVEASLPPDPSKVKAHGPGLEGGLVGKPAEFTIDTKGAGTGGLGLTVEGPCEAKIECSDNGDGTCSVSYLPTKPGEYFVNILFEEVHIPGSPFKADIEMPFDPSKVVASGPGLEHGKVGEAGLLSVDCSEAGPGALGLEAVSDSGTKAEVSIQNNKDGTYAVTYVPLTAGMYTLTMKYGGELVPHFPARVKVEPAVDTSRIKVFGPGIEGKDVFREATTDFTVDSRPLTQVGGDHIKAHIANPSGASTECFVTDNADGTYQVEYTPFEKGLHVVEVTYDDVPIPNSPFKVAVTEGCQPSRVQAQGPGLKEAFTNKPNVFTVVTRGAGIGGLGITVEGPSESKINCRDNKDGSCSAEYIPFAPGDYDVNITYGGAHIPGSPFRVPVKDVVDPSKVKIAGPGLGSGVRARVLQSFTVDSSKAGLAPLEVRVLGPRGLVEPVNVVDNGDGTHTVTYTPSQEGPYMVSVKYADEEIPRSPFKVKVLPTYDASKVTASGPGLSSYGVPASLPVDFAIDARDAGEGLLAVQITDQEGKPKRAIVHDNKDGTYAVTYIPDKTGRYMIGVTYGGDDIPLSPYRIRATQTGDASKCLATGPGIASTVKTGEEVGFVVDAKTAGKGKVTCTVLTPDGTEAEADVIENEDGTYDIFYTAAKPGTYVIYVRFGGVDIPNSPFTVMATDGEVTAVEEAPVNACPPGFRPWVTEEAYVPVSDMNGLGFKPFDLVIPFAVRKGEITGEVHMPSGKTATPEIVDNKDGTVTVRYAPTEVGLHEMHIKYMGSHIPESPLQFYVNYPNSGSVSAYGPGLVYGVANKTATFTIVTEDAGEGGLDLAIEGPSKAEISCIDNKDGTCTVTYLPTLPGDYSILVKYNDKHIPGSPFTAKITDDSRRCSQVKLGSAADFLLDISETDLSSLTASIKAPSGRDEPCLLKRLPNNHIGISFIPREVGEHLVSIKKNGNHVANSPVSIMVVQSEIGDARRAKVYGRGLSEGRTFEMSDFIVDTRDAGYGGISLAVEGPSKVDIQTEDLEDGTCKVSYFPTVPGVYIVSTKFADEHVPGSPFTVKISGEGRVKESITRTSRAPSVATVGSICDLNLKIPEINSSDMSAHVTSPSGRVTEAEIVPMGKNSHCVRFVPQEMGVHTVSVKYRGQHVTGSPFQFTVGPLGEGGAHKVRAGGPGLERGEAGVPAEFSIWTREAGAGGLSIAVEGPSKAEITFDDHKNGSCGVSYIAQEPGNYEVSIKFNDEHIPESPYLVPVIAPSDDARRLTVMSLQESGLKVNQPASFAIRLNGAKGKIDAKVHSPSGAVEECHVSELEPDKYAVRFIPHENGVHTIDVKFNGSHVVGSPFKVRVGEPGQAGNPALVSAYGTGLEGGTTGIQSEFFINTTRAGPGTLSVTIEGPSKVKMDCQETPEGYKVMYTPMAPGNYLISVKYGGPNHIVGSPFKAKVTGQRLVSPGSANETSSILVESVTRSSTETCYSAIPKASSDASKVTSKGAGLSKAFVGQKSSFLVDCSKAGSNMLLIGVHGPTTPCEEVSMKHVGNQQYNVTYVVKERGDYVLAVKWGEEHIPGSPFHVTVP
UniProt O43716: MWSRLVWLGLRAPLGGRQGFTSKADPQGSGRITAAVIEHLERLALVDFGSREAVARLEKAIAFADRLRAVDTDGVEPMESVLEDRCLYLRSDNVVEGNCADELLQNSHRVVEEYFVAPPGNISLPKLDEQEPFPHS
UniProt P09958, whole entry: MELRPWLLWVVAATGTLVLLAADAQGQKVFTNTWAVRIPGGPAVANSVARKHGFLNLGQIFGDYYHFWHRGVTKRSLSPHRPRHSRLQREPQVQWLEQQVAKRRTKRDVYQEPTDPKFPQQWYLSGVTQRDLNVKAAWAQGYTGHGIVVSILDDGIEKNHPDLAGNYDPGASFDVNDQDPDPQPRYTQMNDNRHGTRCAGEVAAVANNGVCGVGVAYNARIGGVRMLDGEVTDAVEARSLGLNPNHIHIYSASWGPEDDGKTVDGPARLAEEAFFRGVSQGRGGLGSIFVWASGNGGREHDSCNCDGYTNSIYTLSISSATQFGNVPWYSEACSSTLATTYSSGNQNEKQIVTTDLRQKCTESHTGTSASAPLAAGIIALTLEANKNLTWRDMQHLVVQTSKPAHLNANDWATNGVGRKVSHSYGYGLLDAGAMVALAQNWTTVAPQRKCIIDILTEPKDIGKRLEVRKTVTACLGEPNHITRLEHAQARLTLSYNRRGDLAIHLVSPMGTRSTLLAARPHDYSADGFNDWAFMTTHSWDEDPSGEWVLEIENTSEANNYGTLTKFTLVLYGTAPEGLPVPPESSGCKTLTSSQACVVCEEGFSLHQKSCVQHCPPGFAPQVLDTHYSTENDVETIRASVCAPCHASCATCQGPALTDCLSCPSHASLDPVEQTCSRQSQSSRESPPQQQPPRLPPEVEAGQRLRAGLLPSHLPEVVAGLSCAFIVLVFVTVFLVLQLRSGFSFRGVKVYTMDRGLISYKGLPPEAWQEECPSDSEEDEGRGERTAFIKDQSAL
UniProt O94925: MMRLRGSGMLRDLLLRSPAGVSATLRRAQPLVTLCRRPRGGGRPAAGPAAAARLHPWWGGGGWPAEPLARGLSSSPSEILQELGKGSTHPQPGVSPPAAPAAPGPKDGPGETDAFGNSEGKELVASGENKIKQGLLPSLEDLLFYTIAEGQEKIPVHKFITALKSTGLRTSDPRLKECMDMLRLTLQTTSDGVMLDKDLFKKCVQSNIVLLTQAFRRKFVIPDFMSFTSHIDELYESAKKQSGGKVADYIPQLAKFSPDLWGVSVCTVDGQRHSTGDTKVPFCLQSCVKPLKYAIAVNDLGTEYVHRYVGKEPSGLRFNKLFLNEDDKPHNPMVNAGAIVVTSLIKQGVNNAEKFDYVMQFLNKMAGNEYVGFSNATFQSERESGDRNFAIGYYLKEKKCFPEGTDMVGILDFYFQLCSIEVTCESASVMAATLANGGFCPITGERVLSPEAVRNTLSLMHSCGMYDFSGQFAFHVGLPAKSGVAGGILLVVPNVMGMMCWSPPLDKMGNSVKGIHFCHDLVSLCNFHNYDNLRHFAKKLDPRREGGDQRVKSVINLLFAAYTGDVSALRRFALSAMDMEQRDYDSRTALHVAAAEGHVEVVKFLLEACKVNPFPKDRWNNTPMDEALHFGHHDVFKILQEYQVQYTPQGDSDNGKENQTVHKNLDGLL
UniProt Q9BQS8: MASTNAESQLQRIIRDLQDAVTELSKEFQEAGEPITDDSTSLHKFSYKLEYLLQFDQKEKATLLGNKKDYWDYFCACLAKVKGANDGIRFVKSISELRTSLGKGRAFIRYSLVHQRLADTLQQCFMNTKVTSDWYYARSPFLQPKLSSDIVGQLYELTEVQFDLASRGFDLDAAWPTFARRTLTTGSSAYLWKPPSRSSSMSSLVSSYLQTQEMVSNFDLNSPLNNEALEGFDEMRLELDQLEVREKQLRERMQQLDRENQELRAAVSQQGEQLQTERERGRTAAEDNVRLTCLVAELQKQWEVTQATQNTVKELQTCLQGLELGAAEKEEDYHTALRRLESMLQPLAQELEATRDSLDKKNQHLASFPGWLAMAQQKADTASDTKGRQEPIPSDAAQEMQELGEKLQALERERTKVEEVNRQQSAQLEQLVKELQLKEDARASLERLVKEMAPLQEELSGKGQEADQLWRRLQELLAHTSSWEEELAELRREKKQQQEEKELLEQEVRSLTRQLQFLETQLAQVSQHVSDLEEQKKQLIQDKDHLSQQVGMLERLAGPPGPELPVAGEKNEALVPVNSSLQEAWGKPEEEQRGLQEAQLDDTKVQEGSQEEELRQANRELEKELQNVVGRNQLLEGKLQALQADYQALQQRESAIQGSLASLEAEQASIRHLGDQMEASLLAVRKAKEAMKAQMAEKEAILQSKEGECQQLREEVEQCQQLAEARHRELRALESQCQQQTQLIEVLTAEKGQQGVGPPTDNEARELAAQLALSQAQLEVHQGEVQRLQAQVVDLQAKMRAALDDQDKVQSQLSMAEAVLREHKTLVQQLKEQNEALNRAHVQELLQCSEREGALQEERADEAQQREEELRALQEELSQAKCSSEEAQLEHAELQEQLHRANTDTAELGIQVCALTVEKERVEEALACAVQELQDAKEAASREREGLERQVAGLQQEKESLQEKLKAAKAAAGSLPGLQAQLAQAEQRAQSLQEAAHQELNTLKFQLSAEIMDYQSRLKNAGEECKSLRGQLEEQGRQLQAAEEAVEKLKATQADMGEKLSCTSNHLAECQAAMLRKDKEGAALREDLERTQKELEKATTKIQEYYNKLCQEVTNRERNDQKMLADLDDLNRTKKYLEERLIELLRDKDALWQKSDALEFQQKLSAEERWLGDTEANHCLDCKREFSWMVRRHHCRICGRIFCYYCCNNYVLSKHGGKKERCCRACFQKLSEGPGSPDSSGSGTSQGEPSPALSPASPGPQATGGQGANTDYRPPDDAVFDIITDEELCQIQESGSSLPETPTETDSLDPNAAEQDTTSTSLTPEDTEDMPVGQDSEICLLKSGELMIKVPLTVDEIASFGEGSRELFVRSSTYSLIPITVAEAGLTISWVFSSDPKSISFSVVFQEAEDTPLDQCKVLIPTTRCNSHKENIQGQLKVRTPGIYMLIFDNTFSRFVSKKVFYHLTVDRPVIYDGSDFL
UniProt O43427: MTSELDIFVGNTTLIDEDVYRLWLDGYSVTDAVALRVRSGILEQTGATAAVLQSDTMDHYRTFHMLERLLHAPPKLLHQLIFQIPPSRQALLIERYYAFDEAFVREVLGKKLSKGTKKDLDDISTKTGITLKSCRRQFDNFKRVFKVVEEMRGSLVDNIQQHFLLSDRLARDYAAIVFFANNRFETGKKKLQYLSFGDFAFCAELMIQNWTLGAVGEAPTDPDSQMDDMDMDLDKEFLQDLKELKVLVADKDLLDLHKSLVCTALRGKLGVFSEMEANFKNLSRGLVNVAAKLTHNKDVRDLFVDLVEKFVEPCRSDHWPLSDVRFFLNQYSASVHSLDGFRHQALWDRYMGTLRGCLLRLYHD
UniProt Q99684: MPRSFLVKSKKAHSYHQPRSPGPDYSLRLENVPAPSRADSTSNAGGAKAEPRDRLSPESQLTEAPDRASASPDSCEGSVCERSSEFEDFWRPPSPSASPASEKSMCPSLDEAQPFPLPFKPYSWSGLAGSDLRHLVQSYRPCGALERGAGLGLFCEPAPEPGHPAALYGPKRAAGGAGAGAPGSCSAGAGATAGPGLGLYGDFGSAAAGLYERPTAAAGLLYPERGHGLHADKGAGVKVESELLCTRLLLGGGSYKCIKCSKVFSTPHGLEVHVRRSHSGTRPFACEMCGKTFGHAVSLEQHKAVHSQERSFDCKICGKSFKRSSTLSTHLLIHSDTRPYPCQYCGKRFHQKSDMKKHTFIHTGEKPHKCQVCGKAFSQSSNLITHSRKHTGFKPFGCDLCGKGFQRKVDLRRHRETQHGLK
UniProt P63218: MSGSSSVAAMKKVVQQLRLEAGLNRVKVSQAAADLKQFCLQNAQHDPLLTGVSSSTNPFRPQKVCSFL

Target	dose-dependent thermal stabilisation call
FUBP3 (UniProt Q96I24)	inactive: 0
GATSL2 (UniProt A6NHX0)	inactive: 0
FLG (UniProt P20930)	inactive: 0
FAM78A (UniProt Q5JUQ0)	inactive: 0
FYN (UniProt P06241)	inactive: 0
GLCCI1 (UniProt Q86VQ1)	inactive: 0
GATAD2A (UniProt Q86YP4)	inactive: 0
FKSG27 (UniProt Q8WZA9)	inactive: 0
FTSJ1 (UniProt Q9UET6)	inactive: 0
FYB (UniProt O15117)	inactive: 0
FKBP3 (UniProt Q00688)	inactive: 0
FOSL1 (UniProt P15407)	inactive: 0
FLNB (UniProt O75369)	inactive: 0
FH (UniProt P07954)	inactive: 0
FRYL (UniProt O94915)	inactive: 0
GATC (UniProt O43716)	inactive: 0
FNBP4 (UniProt Q8N3X1)	inactive: 0
FURIN (UniProt P09958)	inactive: 0
GCN1L1 (UniProt Q92616)	inactive: 0
GLS (UniProt O94925)	inactive: 0

Target	dose-dependent thermal stabilisation call
FYCO1 (UniProt Q9BQS8)	inactive: 0
FUBP1 (UniProt Q96AE4)	inactive: 0
GAK (UniProt O14976)	inactive: 0
FIBP (UniProt O43427)	inactive: 0
GFI1 (UniProt Q99684)	inactive: 0
FUK (UniProt Q8N0W3)	inactive: 0
FASN (UniProt P49327)	inactive: 0
GDAP1 (UniProt Q8TB36)	inactive: 0
GLCE (UniProt O94923)	inactive: 0
GLTP (UniProt Q9NZD2)	inactive: 0
GINS1 (UniProt Q14691)	inactive: 0
FBXO4 (UniProt Q9UKT5)	inactive: 0
FKBP1A (UniProt P62942)	inactive: 0
FAM82B (UniProt Q96DB5)	inactive: 0
GMPR2 (UniProt Q9P2T1)	inactive: 0
GNG5 (UniProt P63218)	inactive: 0
FPGS (UniProt Q05932)	inactive: 0
GDAP2 (UniProt Q9NXN4)	inactive: 0
GALNS (UniProt P34059)	inactive: 0
GMNN (UniProt O75496)	inactive: 0

Looked up one by one from the entries so far:
Target	dose-dependent thermal stabilisation call
GDAP1 (UniProt Q8TB36)	inactive: 0
GNG5 (UniProt P63218)	inactive: 0

Source: the supplement of paper PMC7666118
